In PMC7532498:
No constants are given. Whether binding was seen depends on the method and setting. In cells and extracts the contact can be indirect. Some entries that bind do so weakly or less than the wild type. Tags and fused reporters may be left off the sequences shown.

Biological target: T1, CXXC finger protein 4 (CXXC4) with 3XFlag, from GV141-CXXC4-3XFlag (UniProt Q9H2H0)
T1 sequence: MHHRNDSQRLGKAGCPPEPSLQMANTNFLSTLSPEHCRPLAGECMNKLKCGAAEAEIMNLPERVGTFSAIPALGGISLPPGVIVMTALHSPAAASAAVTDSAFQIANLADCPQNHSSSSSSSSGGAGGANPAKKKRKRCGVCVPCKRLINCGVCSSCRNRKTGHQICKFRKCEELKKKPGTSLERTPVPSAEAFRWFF
Assay: co-IP; HCCLM3 cells (2 x 10^6) lysed in Tris-HCl pH 7.5, 150 mM NaCl, 1% Nonidet P-40, 10% glycerol; pre-cleared lysates with anti-flag or anti-Dvl-1 antibodies overnight at 4°C, protein A/G agarose 2 h; rabbit IgG as control; Western blotting

binding: binds
B1: Dvl-1 (protein, UniProt O14640 1-695)
chain: MAETKIIYHMDEEETPYLVKLPVAPERVTLADFKNVLSNRPVHAYKFFFKSMDQDFGVVKEEIFDDNAKLPCFNGRVVSWLVLAEGAHSDAGSQGTDSHTDLPPPLERTGGIGDSRPPSFHPNVASSRDGMDNETGTESMVSHRRERARRRNREEAARTNGHPRGDRRRDVGLPPDSASTALSSELESSSFVDSDEDGSTSRLSSSTEQSTSSRLIRKHKRRRRKQRLRQADRASSFSSITDSTMSLNIVTVTLNMERHHFLGISIVGQSNDRGDGGIYIGSIMKGGAVAADGRIEPGDMLLQVNDVNFENMSNDDAVRVLREIVSQTGPISLTVAKCWDPTPRSYFTVPRADPVRPIDPAAWLSHTAALTGALPRYGTSPCSSAVTRTSSSSLTSSVPGAPQLEEAPLTVKSDMSAVVRVMQLPDSGLEIRDRMWLKITIANAVIGADVVDWLYTHVEGFKERREARKYASSLLKHGFLRHTVNKITFSEQCYYVFGDLCSNLATLNLNSGSSGTSDQDTLAPLPHPAAPWPLGQGYPYQYPGPPPCFPPAYQDPGFSYGSGSTGSQQSEGSKSSGSTRSSRRAPGREKERRAAGAGGSGSESDHTAPSGVGSSWRERPAGQLSRGSSPRSQASATAPGLPPPHPTTKAYTVVGGPPGGPPVRELAAVPPELTGSRQSFQKAMGNPCEFFVDIM
